Results from PubChem BioAssay AID504467 (National Center for Advancing Translational Sciences (NCATS), 2011).
The campaign covered roughly 330,000 compounds. About 7,700 (2.3%) were called active. The inconclusive results got no clear call from the source; some entries with a clear call stand among them for comparison. The call rests on the fitted dose curve; in most records, active means well fitted inhibition curve with a large enough effect; inconclusive means small, poorly fitted or top-dose-only effect, or effect the other way; inactive means flat fitted curve, though single readings scatter. Where the call is inconclusive, the potency comes from a doubtful curve fit.

experiment: qHTS screen for small molecules that inhibit ELG1-dependent DNA repair in human embryonic kidney (HEK293T) cells expressing luciferase-tagged ELG1; conditions: HEK293T ELG1-luciferase reporter, luminescence, 16 h, DNA damage induced by 5-fluorouridine; series mostly up to 46.1 µM; further: nearly all actives have a fitted effect of over 55% in size
Outline: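 Cells (2,000 per well) received 5-fluorouridine plus test compound or DMSO and were incubated 16 hr at 37 °C, 5% CO2. Luciferase activity was read by luminescence 30 min after ONE-Glo addition; signal suppression marked inhibition of damage-induced ELG1 function.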
Potency means the concentration at half of the fitted maximal effect.

Structure (SMILES)	Potency
Cc1ccc(C)c(NC(=O)c2cnn3ccccc23)c1	inconclusive: 23.1 µM [activator, single point]
O=C(CCC(=O)N/N=C/c1ccc(Br)s1)NCc1ccccc1	inactive
Cc1nc2ccc(NC(=S)NCCCO)cc2nc1C	inconclusive: 9.2 µM [activator, partial curve]
Cc1ccc(C)c(S(=O)(=O)NCc2ccc(C(=O)N3CCC(Cc4ccccc4)CC3)cc2)c1	inconclusive: 9.2 µM [inhibitor, single point]
O=C(NCCCN1CCN(c2ccc(F)cc2)CC1)Nc1ccc([N+](=O)[O-])cc1	inconclusive: 25.9 µM [inhibitor, partial curve, poor fit]
COc1ccc(Br)cc1CN(C)C(=O)C1=CC=CN2CCS(=O)(=O)N=C12	inactive
Cc1nnc(NC(=O)CSc2nc3c(c(=O)n(C)c(=O)n3C)n2C(C)C)s1	inactive
COc1cccc(C2=NOC(C(=O)NCCCn3ccnc3)C2)c1 (stereo not given)	inconclusive: 13 µM [activator, partial curve, poor fit]
O=C(NCc1ccc(OC(F)(F)F)cc1)c1cccc2c1C(=O)c1ccc(N3CCCCC3)cc1S2(=O)=O	inactive
CCOC(=O)C1=C(C)Nc2ccccc2N=C1NC(=O)/C=C/c1ccc(OC)cc1OC	inconclusive: 23.1 µM [inhibitor, single point]
CNC(=O)Cn1nc(C)c(S(=O)(=O)N2CCOCC2)c1C	inactive
Cc1cc(C)cc(N(CC(=O)NC2CCCC2)C(=O)CCC(=O)Nc2nc(C)cs2)c1	inactive
COc1ccc(Cl)cc1NC(=O)Cn1cccc1	inconclusive: 2.91 µM [inhibitor, partial curve, poor fit]
O=S(=O)(Cc1ccc(Cl)cc1)Nc1ccc2c(c1)OCO2	inactive
O=C(NNC1OC(CO)C(O)C(O)C1O)c1cccc(Br)c1 (stereo not given)	inactive
O=C(Oc1c(CN2CCOCC2)cc(Cl)c2cccnc12)c1ccccc1F	active: 10.3 µM
COc1ccc(-c2ccc(CCC(=O)O)n2-c2ccccc2OC)cc1	inactive
CC(C)(C)c1ccc(/C=N/N2C(=O)CSC2=S)cc1	inconclusive: 20.6 µM [activator, single point]
CCSc1nnc(NC(=O)CSc2nc3c(c(=O)n2-c2ccccc2OC)SCC3)s1	inconclusive: 14.6 µM [inhibitor, partial curve, poor fit]
CC(C)(C)C(=O)Nc1nnc(SCC(=O)NCc2ccco2)s1	inactive
COc1ccc(N(CC(=O)Nc2ccccc2C(=O)N2CCCC2)S(C)(=O)=O)cc1	inactive
O=C(NCC(=O)N1CCN(c2ccccc2O)CC1)c1ccc2ccccc2c1	inconclusive: 2.91 µM [inhibitor, partial curve, poor fit]
CC(C)N1CCc2c(sc(NC(=O)c3cc(-c4cccs4)nc4ccccc34)c2C(N)=O)C1	inconclusive: 16.4 µM [inhibitor, single point]
COc1cccc(-c2nn(-c3ccc(F)cc3)cc2C(=O)NCC2CCCO2)c1 (stereo not given)	inconclusive: 29.1 µM [inhibitor, single point]

Structure (SMILES)	Potency
COCCN(CCOC)S(=O)(=O)c1ccc(C(=O)Nc2nnc(C3CC3)o2)cc1	inactive
COc1ccc(/C=N\NC(=O)c2cc(O)c(O)c(O)c2)cc1CN1CCN(c2ccc(F)cc2)CC1	inactive
COc1ccc(C(=O)NC(=S)Nc2cccc3nc(C)ccc23)cc1OC	inconclusive: 6.51 µM [inhibitor, partial curve]
CC(=O)c1ccccc1NC(=O)COC(=O)/C(=C/c1ccccc1)n1nnnc1C	inconclusive: 29.1 µM [inhibitor, single point]
CC(c1ccc(Cl)cc1)n1c(-c2ccc3ccccc3n2)n[nH]c1=S (stereo not given)	inactive
Cc1cccc(OCc2nc(-c3ccc(Br)o3)no2)c1	inconclusive: 23.1 µM [activator, single point]
Cc1ccc(S(=O)(=O)Nc2ccc(N=Nc3ccc(O)cc3)cc2)cc1	inconclusive: 20.6 µM [activator, partial curve, poor fit]
O=C(Nc1cccc(S(=O)(=O)N2CCCCC2)c1)Nc1ccc(Cl)cc1Cl	inconclusive: 25.9 µM [inhibitor, single point]
Cc1cc(NCCNC2=CC(=O)CCC2)nc2ccccc12	inactive
O=C(CC(=O)Nc1cccc(Cl)c1)N/N=C\c1ccccc1	inactive
O=C(CCN1CCN(S(=O)(=O)c2ccc(Cl)cc2)CC1)Nc1ccccc1F	inconclusive: 20.6 µM [inhibitor, single point]
CC(C)CNC(=O)c1cc(-c2ccco2)on1	inconclusive: 10.3 µM [activator, partial curve]
COc1ccc2cc(C3=CCCCC3)ncc2c1	inconclusive: 1.46 µM [activator, full curve]
COc1ccc(NC(=O)C2CCCC2)cc1	inconclusive: 18.3 µM [activator, single point]
Cc1onc(-c2ccccc2Cl)c1C(=O)Nc1ccc(-c2cn3cccnc3n2)cc1	active: 13 µM
O=C1c2ccccc2C(O)N1c1ccccc1 (stereo not given)	inconclusive: 13 µM [activator, partial curve, poor fit]
CC1(c2ccccc2)CC(c2ccccc2)=Nc2ccccc2N1 (stereo not given)	inconclusive: 29.1 µM [activator, single point]
CCOc1ccc2nc(NC(=O)CSCC(=O)Nc3cc(C)on3)sc2c1	inconclusive: 3.66 µM [activator, full curve]
CCCn1c(=O)c2sccc2n2c(CCCC(=O)NCc3ccco3)nnc12	inactive
O=S1(=O)C=C(SCc2ccc(F)cc2)Nc2ccccc21	inconclusive: 20.6 µM [inhibitor, partial curve]
Nc1ccc2ncccc2c1	inconclusive: 25.9 µM [inhibitor, single point]
COCCN=C1Sc2nc3ccc(C)cc3cc2CN1Cc1cccs1	inconclusive: 23.1 µM [inhibitor, single point]
O=C(/C=C/c1ccc(S(=O)(=O)N2CCOCC2)cc1)Nc1ccc(F)c(F)c1F	active: 20.6 µM
Cc1cccc(N=Cc2[nH]c3ccc(Br)c(Cl)c3c2O)c1	inconclusive: 20.6 µM [activator, partial curve, poor fit]

Structure (SMILES)	Potency
O=C(c1ccc(-n2c(SCc3cccc(F)c3)nc3ccccc3c2=O)cc1)N1CCOCC1	inconclusive: 18.4 µM [inhibitor, single point]
COc1cc(C=NNC(=O)c2ccccc2NS(=O)(=O)c2cccs2)cc(OC)c1O	inactive
c1ccc(CCCc2nc(-c3ccccn3)no2)cc1	inconclusive: 14.6 µM [activator, partial curve]
O=C(c1ccc(S(=O)(=O)c2ccccc2Cl)c([N+](=O)[O-])c1)N1CCN(Cc2ccccc2)CC1	active: 23.1 µM
CCOC(OCC)c1cn(Cc2ccc3c(c2)C(=O)c2ccccc2C3=O)nn1	inconclusive: 9.2 µM [inhibitor, single point]
C=CCN(C(=O)Cn1ncc2c1-c1cc(C)ccc1OC2)c1ccccc1	inconclusive: 29.1 µM [inhibitor, single point]
Cn1c(SCc2nc(-c3ccc(Cl)cc3)no2)nnc1-c1cccs1	inconclusive: 25.9 µM [inhibitor, single point]
Cc1nc(SCc2nc3ccccc3[nH]2)c2oc3cc([N+](=O)[O-])ccc3c2n1	active: 23.1 µM
CCCC(=Nc1ccc(N)cc1)C1=C(O)C(C(=O)OC)C(C)(C)CC1=O (stereo not given)	inconclusive: 18.4 µM [activator, partial curve, poor fit]
O=C(COC(=O)Cn1cnc2ccccc21)Nc1ccc2c(c1)C(=O)c1ccccc1C2=O	inconclusive: 6.51 µM [activator, partial curve]
O=S(=O)(c1cc(Cl)ccc1Br)N1CCCCC1	inactive
Cc1nnc(N/N=C/c2c(O)n(-c3cccc(C(F)(F)F)c3)c(=O)c3ccccc23)[nH]c1=O	inactive
CC(=O)NCCc1ccc(C(=O)COC(=O)C2CCCCC2)cc1	inconclusive: 18.3 µM [activator, partial curve]
Cc1c(Cl)cccc1NC(=O)NCc1ccc(F)cc1	inconclusive: 20.6 µM [activator, partial curve]
CC1(NC(=O)NCCCCCCNC(=O)NC2(C)CCS(=O)(=O)C2)CCS(=O)(=O)C1 (stereo not given)	inactive
COC(=O)c1ccccc1S(=O)(=O)N(CCCO)Cc1cc2c(C)ccc(C)c2[nH]c1=O	inconclusive: 20.6 µM [inhibitor, partial curve]
O=C(Nc1ccccc1N1CCCC1)C1CCN(S(=O)(=O)c2ccccc2C(F)(F)F)CC1	inconclusive: 29.1 µM [inhibitor, single point]
CCC(C)(C)C1CCc2[nH]nc(C(=O)NCCNC(=O)OC(C)(C)C)c2C1 (stereo not given)	inconclusive: 3.16 µM [inhibitor, partial curve, poor fit]
COc1cc2cc(C#N)c(SCC(=O)N3CCOCC3)nc2cc1OC	inactive
CC1CCc2c(sc3nc(C(C)(C)C)nc(N4CCN(C(=O)CCl)CC4)c23)C1 (stereo not given)	inconclusive: 25.9 µM [inhibitor, single point]
COc1ccc(NC(=O)COC(=O)c2ccc3ccccc3n2)cc1OC	inconclusive: 18.3 µM [activator, partial curve, poor fit]
Cc1ccc2[nH]c(CCN(C)C)c(CN3CCOCC3)c2c1	inconclusive: 31.6 µM [activator, single point]

Reprinted at random: four entries already listed
Structure (SMILES)	Potency
CC(=O)c1ccccc1NC(=O)COC(=O)/C(=C/c1ccccc1)n1nnnc1C	inconclusive: 29.1 µM [inhibitor, single point]
COc1cc(C=NNC(=O)c2ccccc2NS(=O)(=O)c2cccs2)cc(OC)c1O	inactive
CCCn1c(=O)c2sccc2n2c(CCCC(=O)NCc3ccco3)nnc12	inactive
CC(C)CNC(=O)c1cc(-c2ccco2)on1	inconclusive: 10.3 µM [activator, partial curve]
